Source: the supplement of paper PMC6411743
± gives the standard deviation of the averaged measurements. The list shows a part of the results.

Assays:
Assay in all cases: NP40-soluble protein abundance relative to vehicle (solubility fold change) (ratio); higher = more soluble protein in presence of GTP
[1] = target: T1, UniProt Q9Y2K1 and related entries
T1 sequence (whole entry): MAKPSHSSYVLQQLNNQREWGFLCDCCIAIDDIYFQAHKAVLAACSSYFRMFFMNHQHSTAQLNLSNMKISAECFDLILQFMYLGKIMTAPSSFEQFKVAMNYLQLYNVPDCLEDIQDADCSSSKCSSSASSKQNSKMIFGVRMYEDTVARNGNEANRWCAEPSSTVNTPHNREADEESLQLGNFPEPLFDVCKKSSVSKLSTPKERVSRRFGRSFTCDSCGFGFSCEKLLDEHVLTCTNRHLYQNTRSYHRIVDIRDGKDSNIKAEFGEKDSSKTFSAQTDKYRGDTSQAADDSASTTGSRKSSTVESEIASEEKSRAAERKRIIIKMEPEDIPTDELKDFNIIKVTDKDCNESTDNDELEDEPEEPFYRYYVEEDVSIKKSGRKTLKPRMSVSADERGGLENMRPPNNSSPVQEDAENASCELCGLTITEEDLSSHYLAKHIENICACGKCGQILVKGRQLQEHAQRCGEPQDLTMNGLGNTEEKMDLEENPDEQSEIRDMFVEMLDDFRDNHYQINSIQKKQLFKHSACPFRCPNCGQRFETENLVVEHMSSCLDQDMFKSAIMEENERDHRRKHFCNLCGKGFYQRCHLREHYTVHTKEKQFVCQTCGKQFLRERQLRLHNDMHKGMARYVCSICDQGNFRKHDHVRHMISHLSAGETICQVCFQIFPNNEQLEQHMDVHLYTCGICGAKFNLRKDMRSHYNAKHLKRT
Procedure, shortened: (§1)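 Crude Jurkat lysate, prepared by Dounce homogenisation, was exposed to eight concentrations from 0.1 to 10 mM for 10 min at room temperature and then 3 min at 37 °C. Solubilisation used 0.8% NP40 with benzonase for 60 min at 4 °C, followed by ultracentrifugation and TMT labelling of the supernatant for LC-MS/MS. After vsn normalisation of intensities, each value is the fold change against the detergent-processed vehicle within each replicate, across three independent experiments.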

[2] = target: T2, UniProt Q9Y312 and related entries
T2 sequence (whole entry): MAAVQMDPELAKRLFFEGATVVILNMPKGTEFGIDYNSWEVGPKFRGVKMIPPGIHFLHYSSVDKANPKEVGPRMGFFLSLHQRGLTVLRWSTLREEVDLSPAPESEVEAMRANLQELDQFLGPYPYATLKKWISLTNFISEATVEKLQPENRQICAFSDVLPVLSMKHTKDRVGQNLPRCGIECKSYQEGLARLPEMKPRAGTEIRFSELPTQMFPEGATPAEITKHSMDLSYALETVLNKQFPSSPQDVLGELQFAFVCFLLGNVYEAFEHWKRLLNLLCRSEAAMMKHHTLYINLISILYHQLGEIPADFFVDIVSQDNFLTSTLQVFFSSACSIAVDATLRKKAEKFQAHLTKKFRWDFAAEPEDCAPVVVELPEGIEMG
Procedure, shortened: as §1

[3] = target: T3, UniProt Q9Y4C2 and related entries
T3 sequence (whole entry): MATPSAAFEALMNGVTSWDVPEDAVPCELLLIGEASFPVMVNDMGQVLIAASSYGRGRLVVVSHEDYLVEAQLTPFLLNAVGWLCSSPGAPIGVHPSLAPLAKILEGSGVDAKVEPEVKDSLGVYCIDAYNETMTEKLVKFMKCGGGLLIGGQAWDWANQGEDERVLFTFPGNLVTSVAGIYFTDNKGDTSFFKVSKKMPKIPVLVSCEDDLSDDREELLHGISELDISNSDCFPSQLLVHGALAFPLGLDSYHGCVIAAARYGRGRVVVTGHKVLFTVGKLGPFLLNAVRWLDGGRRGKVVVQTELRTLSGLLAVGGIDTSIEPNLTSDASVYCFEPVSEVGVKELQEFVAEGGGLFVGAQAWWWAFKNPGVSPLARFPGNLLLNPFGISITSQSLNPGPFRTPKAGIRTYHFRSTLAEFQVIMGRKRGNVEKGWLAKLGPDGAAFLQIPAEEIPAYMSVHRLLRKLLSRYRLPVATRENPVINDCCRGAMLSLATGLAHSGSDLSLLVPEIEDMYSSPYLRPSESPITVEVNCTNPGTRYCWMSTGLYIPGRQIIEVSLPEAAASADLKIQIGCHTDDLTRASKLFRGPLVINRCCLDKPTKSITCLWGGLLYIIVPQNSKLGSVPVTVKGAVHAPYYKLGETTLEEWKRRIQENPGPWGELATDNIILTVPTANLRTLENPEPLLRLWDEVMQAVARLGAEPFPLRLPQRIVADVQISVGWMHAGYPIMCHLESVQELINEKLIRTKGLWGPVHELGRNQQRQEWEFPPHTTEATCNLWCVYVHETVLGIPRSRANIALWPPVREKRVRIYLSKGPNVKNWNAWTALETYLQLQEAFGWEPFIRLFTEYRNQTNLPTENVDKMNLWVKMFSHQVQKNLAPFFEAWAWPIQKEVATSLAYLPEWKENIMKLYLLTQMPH
Procedure, shortened: as §1

[4] = target: T4, UniProt Q9Y4W2 and related entries
T4 sequence (whole entry): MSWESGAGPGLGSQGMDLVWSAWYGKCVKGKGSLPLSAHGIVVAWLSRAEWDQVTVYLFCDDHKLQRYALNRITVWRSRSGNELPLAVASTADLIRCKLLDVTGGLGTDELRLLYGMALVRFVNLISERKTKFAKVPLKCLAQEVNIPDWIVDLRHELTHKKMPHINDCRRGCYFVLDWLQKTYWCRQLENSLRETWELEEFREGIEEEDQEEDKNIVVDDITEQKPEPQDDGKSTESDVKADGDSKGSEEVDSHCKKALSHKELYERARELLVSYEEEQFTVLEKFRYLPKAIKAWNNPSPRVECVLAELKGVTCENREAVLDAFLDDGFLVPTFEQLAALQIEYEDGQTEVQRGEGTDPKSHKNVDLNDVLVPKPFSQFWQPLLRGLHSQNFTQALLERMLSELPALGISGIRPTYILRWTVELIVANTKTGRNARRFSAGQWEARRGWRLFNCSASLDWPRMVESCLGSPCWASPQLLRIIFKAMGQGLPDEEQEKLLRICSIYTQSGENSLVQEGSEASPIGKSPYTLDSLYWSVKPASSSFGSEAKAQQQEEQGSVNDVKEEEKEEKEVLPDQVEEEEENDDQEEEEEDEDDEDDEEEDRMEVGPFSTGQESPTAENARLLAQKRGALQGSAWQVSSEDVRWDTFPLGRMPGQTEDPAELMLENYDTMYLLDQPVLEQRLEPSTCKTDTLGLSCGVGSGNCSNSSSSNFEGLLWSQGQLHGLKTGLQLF
Procedure, shortened: as §1

## Nc1nc2c(ncn2[C@@H]2O[C@H](COP(=O)(O)OP(=O)(O)OP(=O)(O)O)[C@@H](O)[C@H]2O)c(=O)[nH]1 [guanosine triphosphate]
[1]; concentration: 4mM
  NP40-soluble protein abundance: 1.15 ± 0.08
[1]; concentration: 6mM
  NP40-soluble protein abundance: 1.17 ± 0.11
[1]; concentration: 8mM
  NP40-soluble protein abundance: 1.22 ± 0.11
[1]; concentration: 10mM
  NP40-soluble protein abundance: 1.25 ± 0.15
[2]; concentration: 0.1mM
  NP40-soluble protein abundance: 0.9705 ± 0.0056
[2]; concentration: 0.5mM
  NP40-soluble protein abundance: 1.03 ± 0.08
[2]; concentration: 1mM
  NP40-soluble protein abundance: 0.984 ± 0.035
[2]; concentration: 2mM
  NP40-soluble protein abundance: 1.02 ± 0.055
[2]; concentration: 4mM
  NP40-soluble protein abundance: 1.02 ± 0.053
[2]; concentration: 6mM
  NP40-soluble protein abundance: 0.971 ± 0.043
[2]; concentration: 8mM
  NP40-soluble protein abundance: 0.995 ± 0.059
[2]; concentration: 10mM
  NP40-soluble protein abundance: 0.955 ± 0.088
[3]; concentration: 0.1mM
  NP40-soluble protein abundance: 1.16 ± 0.061
[3]; concentration: 0.5mM
  NP40-soluble protein abundance: 1.09 ± 0.053
[3]; concentration: 1mM
  NP40-soluble protein abundance: 1.11 ± 0.024
[3]; concentration: 2mM
  NP40-soluble protein abundance: 1.08 ± 0.018
[3]; concentration: 4mM
  NP40-soluble protein abundance: 1.06 ± 0.044
[3]; concentration: 6mM
  NP40-soluble protein abundance: 1.08 ± 0.13
[3]; concentration: 8mM
  NP40-soluble protein abundance: 1.106 ± 0.006
[3]; concentration: 10mM
  NP40-soluble protein abundance: 1 ± 0.078
[4]; concentration: 0.1mM
  NP40-soluble protein abundance: 1.03 ± 0.055
[4]; concentration: 0.5mM
  NP40-soluble protein abundance: 1.04 ± 0.066
[4]; concentration: 1mM
  NP40-soluble protein abundance: 1.04 ± 0.14
[4]; concentration: 2mM
  NP40-soluble protein abundance: 1.09 ± 0.13
[4]; concentration: 4mM
  NP40-soluble protein abundance: 1.08 ± 0.15
[4]; concentration: 6mM
  NP40-soluble protein abundance: 1.11 ± 0.085
[4]; concentration: 8mM
  NP40-soluble protein abundance: 1.15 ± 0.16
[4]; concentration: 10mM
  NP40-soluble protein abundance: 1.13 ± 0.15
